1 molecule from publication PMC5269740 can be followed below.

The assay addresses T1, receptor activator of nuclear factor-κB (RANK) (mouse (endogenous in BMMs of C57BL/6 mice)) (UniProt O35305).
T1 sequence: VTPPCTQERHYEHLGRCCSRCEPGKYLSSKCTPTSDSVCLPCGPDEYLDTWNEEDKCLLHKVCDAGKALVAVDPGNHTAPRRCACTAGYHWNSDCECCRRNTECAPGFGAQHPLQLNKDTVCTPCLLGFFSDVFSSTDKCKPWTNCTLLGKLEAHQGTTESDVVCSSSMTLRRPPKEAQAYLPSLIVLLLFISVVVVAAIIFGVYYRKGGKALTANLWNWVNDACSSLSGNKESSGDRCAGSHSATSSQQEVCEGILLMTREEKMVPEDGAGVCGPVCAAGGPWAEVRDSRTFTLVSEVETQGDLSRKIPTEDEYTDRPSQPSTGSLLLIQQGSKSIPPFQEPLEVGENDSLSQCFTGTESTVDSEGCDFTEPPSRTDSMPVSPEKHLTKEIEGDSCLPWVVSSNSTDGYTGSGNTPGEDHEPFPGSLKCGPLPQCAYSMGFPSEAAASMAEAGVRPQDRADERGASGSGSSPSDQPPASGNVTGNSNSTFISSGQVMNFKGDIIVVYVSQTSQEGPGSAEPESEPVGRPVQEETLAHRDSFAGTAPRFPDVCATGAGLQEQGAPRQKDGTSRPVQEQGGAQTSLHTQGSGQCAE
The assay is described as follows: co-IP; lysates of BMMs (IP lysis buffer) precipitated with anti-RANK antibody at 4 °C overnight and protein A sepharose beads, blotted with anti-TRAF6; cells pre-treated with or without 100 ng/ml IL-6 and 100 ng/ml sIL-6R for 4 h, then stimulated with 10 or 50 ng/ml RANKL for 0, 5, 15 or 30 min.

Results are given in words; binding and its absence hold for the method and conditions named. Binding seen in cells or lysates may run through a third protein. Some results given as binding are weak or reduced against the parent protein; the word gives no strength.

B1: TNF receptor associated factor 6 (TRAF6) (protein, UniProt P70196 1-530)
chain: MSLLNCENSCGSSQSSSDCCAAMAASCSAAVKDDSVSGSASTGNLSSSFMEEIQGYDVEFDPPLESKYECPICLMALREAVQTPCGHRFCKACIIKSIRDAGHKCPVDNEILLENQLFPDNFAKREILSLTVKCPNKGCLQKMELRHLEDHQVHCEFALVNCPQCQRPFQKCQVNTHIIEDCPRRQVSCVNCAVSMAYEEKEIHDQSCPLANIICEYCGTILIREQMPNHYDLDCPTAPIPCTFSVFGCHEKMQRNHLARHLQENTQLHMRLLAQAVHNVNLALRPCDAASPSRGCRPEDPNYEETIKQLESRLVRQDHQIRELTAKMETQSMYVGELKRTIRTLEDKVAEMEAQQCNGIYIWKIGNFGMHLKSQEEERPVVIHSPGFYTGRPGYKLCMRLHLQLPTAQRCANYISLFVHTMQGEYDSHLPWPFQGTIRLTILDQSEALIRQNHEEVMDAKPELLAFQRPTIPRNPKGFGYVTFMHLEALRQGTFIKDDTLLVRCEVSTRFDMGGLRKEGFQPRSTDAGV
B1: the binding result is on record as “binds”.
